The source of these data is the supplement of paper PMC5662767.

Structures can show the parent of a compound that is named as a salt. Some of the results follow. Baselines shift from plate to plate; read single values as rough.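 A clonal Drosophila S2 line expresses Smoothened bearing circularly permuted GFP in its cytoplasmic tail; Hh-driven phosphorylation opens an inhibitory loop, making it fluoresce. Flow cytometry measured per-cell fluorescence, normalized to Hh-stimulated untreated cells. Hits were inhibitor groups with shared pathway targets that consistently shifted fluorescence, not individual compounds.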 Residues, ends and D or L forms follow the SMILES beside them. *: point of attachment. Cbz = O=C(OCc1ccccc1)*

In one assay the test system is Drosophila S2 cl14 SmoIP sensor cells. Kind of assay: normalized SmoIP GFP fluorescence (untreated unstimulated = 0%, untreated Hh-stimulated = 100%); higher = more Smo activation sensor fluorescence. The following applies: stimulation: Hh conditioned medium (+Hh); compound concentration: 15 uM; 24 h.
Consider `Oc1nc(-c2ccc(C(F)(F)F)cc2)nc2c1CSCC2`, for which the “normalized SmoIP GFP fluorescence” value stood at 124%.

Consider `O=C(c1ccc(F)cc1)N1CCC[C@H](c2nc(-c3ccc(F)cc3)no2)C1`, for which the “normalized SmoIP GFP fluorescence” value was found to be 148%.

In the case of `COc1ccc(C(=O)Nc2sc3c(c2C(N)=O)CCCC3)cc1OC`, the “normalized SmoIP GFP fluorescence” value was found to be 142%.

In the case of `Nc1nc(N)nc(-c2cc(Cl)ccc2Cl)n1` [Irsogladine-maleate], the “normalized SmoIP GFP fluorescence” value came out at 127%.

`COc1cc2nccc(Oc3ccc(NC(=O)NC4CC4)c(Cl)c3)c2cc1C(N)=O`: the “normalized SmoIP GFP fluorescence” value stood at 232%.

On to `CN(C)CCCCC(=O)Nc1ccc(NC(=S)NC(=O)c2ccc(C(C)(C)C)cc2)cc1` [tenovin-6], for which the “normalized SmoIP GFP fluorescence” value stood at 138%.

The same assay, now with this note: stimulation: mock conditioned medium (-Hh); compound concentration: 15 uM; 24 h.
As to `CS(=O)(=O)N1CCc2c(-c3cnc(N)nc3)nc(N3CCOCC3)nc21`, the “normalized SmoIP GFP fluorescence” value was -3.72%.

For the compound `CC(=O)S[C@@H]1CC2=CC(=O)CC[C@]2(C)[C@H]2CC[C@@]3(C)[C@@H](CC[C@@]34CCC(=O)O4)[C@H]12` [spironolactone], the “normalized SmoIP GFP fluorescence” value was -0.491%.

With `CO[C@H]1C[C@@H]2CC[C@@H](C)[C@@](O)(O2)C(=O)C(=O)N2CCCC[C@H]2C(=O)O[C@H]([C@H](C)C[C@@H]2CC[C@@H](OP(C)(C)=O)[C@H](OC)C2)CC(=O)[C@H](C)/C=C(\C)[C@@H](O)[C@@H](OC)C(=O)[C@H](C)C[C@H](C)/C=C/C=C/C=C/1C` [Deforolimus], the “normalized SmoIP GFP fluorescence” value stood at 18.3%.

As to `CC(C)c1cc(C(=O)N2Cc3ccc(CN4CCN(C)CC4)cc3C2)c(O)cc1O`, the “normalized SmoIP GFP fluorescence” value is 72.2%.

Consider `c1cncc(CN2CCC(n3ncc4c(N5CCOCC5)nc(-c5ccc6[nH]ccc6c5)nc43)CC2)c1`, for which the “normalized SmoIP GFP fluorescence” value is 77.5%.

Regarding `Cc1cc(Nc2nc(N[C@@H](C)c3ccc(F)cc3)c(C#N)cc2F)n[nH]1`, the “normalized SmoIP GFP fluorescence” value was 8.81%.

Take `CC(C)C[C@@H](C=O)NC(=O)[C@H](CC(C)C)NC(=O)[C@H](CC(C)C)NC(=O)OCc1ccccc1` (Cbz-Leu-Leu-Leu-aldehyde): the “normalized SmoIP GFP fluorescence” value worked out at 70.8%.

As to `CCCNC(=O)Nc1ccc(Oc2ncnc3cc(OC)c(OC)cc23)cc1Cl`, the “normalized SmoIP GFP fluorescence” value worked out at 8.14%.

On to `CCOC(=O)[C@H](CCc1ccccc1)N[C@@H](C)C(=O)N1CCC[C@H]1C(=O)O` [Enalapril-maleate(Vasotec)], for which the “normalized SmoIP GFP fluorescence” value is -12.7%.

With `Cc1cc(C(C)Nc2ccccc2)c2nc(N3CCOCC3)cc(=O)n2c1` (stereo unspecified), the “normalized SmoIP GFP fluorescence” value is 32.6%.

As to `O=C(O)CCc1ccc(NCc2cccc(Oc3ccccc3)c2)cc1`, the “normalized SmoIP GFP fluorescence” value was -14.5%.

Consider `CN1CCC[C@@H]1Cc1c[nH]c2ccc(CCS(=O)(=O)c3ccccc3)cc12` [eletriptan-hydrobromide], for which the “normalized SmoIP GFP fluorescence” value was 4.79%.

As to `CCCCNC(=O)NS(=O)(=O)c1ccc(C)cc1` [tolbutamide], the “normalized SmoIP GFP fluorescence” value was -19%.

For the compound `COc1ccc2c(c1)C(=O)N(CCc1ccc(S(=O)(=O)NC(=O)NC3CCCCC3)cc1)C(=O)C2(C)C` [gliquidone], the “normalized SmoIP GFP fluorescence” value came out at 9.22%.

As to `CC(=O)/N=c1/sc(S(N)(=O)=O)nn1C` [methazolamide], the “normalized SmoIP GFP fluorescence” value was found to be 1.1%.

As to `COc1ccc(-n2nc(C(N)=O)c3c2C(=O)N(c2ccc(N4CCCCC4=O)cc2)CC3)cc1`, the “normalized SmoIP GFP fluorescence” value was -2.42%.

For `O=c1n(CCCN2CCN(c3cccc(Cl)c3)CC2)nc2ccccn12` [trazodone-hydrochloride-desyrel], the “normalized SmoIP GFP fluorescence” value is 8.54%.

On to `O=C1c2ccc(Nc3ccc(F)cc3F)cc2CCc2ccc(OC[C@H](O)CO)cc21` [skepinone-l], for which the “normalized SmoIP GFP fluorescence” value was -0.0369%.

As for `c1ccc2c(Oc3nc(Nc4ccc(N5CCOCC5)cc4)c4ncn(C5CCCCC5)c4n3)cccc2c1` [purmorphamine], the “normalized SmoIP GFP fluorescence” value turned out to be 30.3%.

For the compound `CC1(C)O[C@@H]2[C@@H](CO[C@@]3(COS(N)(=O)=O)OC(C)(C)O[C@@H]23)O1` [Topiramate], the “normalized SmoIP GFP fluorescence” value turned out to be 4.8%.

With `CCS(=O)(=O)c1cccc(-c2cc(C(=O)NC3CCN(C)CC3)c(C)c3[nH]c4ncc(C)cc4c23)c1`, the “normalized SmoIP GFP fluorescence” value is -15.6%.

Consider `Nc1ccc(-c2ccc3ncc4ccc(=O)n(-c5cccc(C(F)(F)F)c5)c4c3c2)cn1` [torin-2], for which the “normalized SmoIP GFP fluorescence” value was found to be 30.8%.

On to `Oc1cccc(-c2nc(N3CCOCC3)c3oc4ncccc4c3n2)c1`, for which the “normalized SmoIP GFP fluorescence” value amounted to 7.92%.

On to `COc1ccc(CNc2nc(N3CCC[C@H]3CO)ncc2C(=O)NCc2ncccn2)cc1Cl` [avanafil], for which the “normalized SmoIP GFP fluorescence” value is 1.44%.

Consider `O=C(NS(=O)(=O)c1ccc(Br)s1)c1ccc(Cl)cc1Cl` [tasisulam], for which the “normalized SmoIP GFP fluorescence” value was determined as 3.88%.

In the case of `c1cnc2cc3c(cc2n1)[C@@H]1CNC[C@H]3C1` [Varenicline-tartrate], the “normalized SmoIP GFP fluorescence” value was 0.274%.

Take `O=C(/C=C\n1cnc(-c2cc(C(F)(F)F)cc(C(F)(F)F)c2)n1)NNc1cnccn1`: the “normalized SmoIP GFP fluorescence” value stood at 48.6%.

For the compound `COC(=O)C1=C(C#N)NC(C)=C(C(=O)OC(C)C)C1c1cccc([N+](=O)[O-])c1` (stereo unspecified) [nilvadipine-arc029], the “normalized SmoIP GFP fluorescence” value amounted to 7.46%.

As to `O=C(NCc1ccccc1)c1csc(Nc2ccncn2)n1` [Thiazovivin], the “normalized SmoIP GFP fluorescence” value worked out at 32.9%.

With `Nc1nnc(-c2cccc(Cl)c2Cl)c(N)n1` [lamotrigine], the “normalized SmoIP GFP fluorescence” value is -0.378%.

With `Cc1cc([C@@H](C)Nc2ccccc2C(=O)O)c2nc(N3CCOCC3)cc(=O)n2c1`, the “normalized SmoIP GFP fluorescence” value worked out at 20.4%.

For the compound `CN1CCC[C@@H]1CCO[C@](C)(c1ccccc1)c1ccc(Cl)cc1` [Clemastine-Fumarate], the “normalized SmoIP GFP fluorescence” value worked out at 65.3%.

Consider `CN(C)CCC(c1ccc(Br)cc1)c1ccccn1` (stereo unspecified) [brompheniramine], for which the “normalized SmoIP GFP fluorescence” value came out at 4.3%.

On to `Nc1ccn([C@H]2CC[C@@H](CO)O2)c(=O)n1` [Zalcitabine], for which the “normalized SmoIP GFP fluorescence” value was -6.79%.

As to `Oc1nc(-c2ccc(C(F)(F)F)cc2)nc2c1CSCC2`, the “normalized SmoIP GFP fluorescence” value stood at 2.11%.

Take `O=C(c1ccc(F)cc1)N1CCC[C@H](c2nc(-c3ccc(F)cc3)no2)C1`: the “normalized SmoIP GFP fluorescence” value was 19.1%.

`COc1ccc(C(=O)Nc2sc3c(c2C(N)=O)CCCC3)cc1OC`: the “normalized SmoIP GFP fluorescence” value was -9.04%.

As to `Nc1nc(N)nc(-c2cc(Cl)ccc2Cl)n1` [Irsogladine-maleate], the “normalized SmoIP GFP fluorescence” value was -7.42%.

`COc1cc2nccc(Oc3ccc(NC(=O)NC4CC4)c(Cl)c3)c2cc1C(N)=O`: the “normalized SmoIP GFP fluorescence” value came out at 48.5%.

For the compound `CN(C)CCCCC(=O)Nc1ccc(NC(=S)NC(=O)c2ccc(C(C)(C)C)cc2)cc1` [tenovin-6], the “normalized SmoIP GFP fluorescence” value was 47.6%.
